The other results are listed elsewhere or left out.
Tests used:
Test in all cases: log2 fold change, soluble protein after heating vs DMSO (PISA); higher = thermal stabilisation; K562 lysate, 10 uM; active = over 0.2 and 3.5 SD of the protein, either way, in both replicates (recomputed)
vemurafenib = compound: CCCS(=O)(=O)Nc1ccc(F)c(C(=O)c2c[nH]c3ncc(-c4ccc(Cl)cc4)cc23)c1F [vemurafenib]
Summary of the method: (§1)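 The values are log-two fold changes in thermal stability compared with solvent controls and come from duplicates. They were obtained by TMTpro 16plex LC-MS/MS, with channel sums equalised, on the supernatant after 21,000xg for 90 min. That supernatant came from crude K562 extract at 1 mg/mL protein treated with 10 μM compound for 30 min, heated for 3 min across 48°C-58°C, pooled and brought to 0.5% NP-40 at 4°C.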

Sequences of proteins named here, by UniProt entry; tags and fusion partners are left off. A change or cut given only in a name is not applied to a line headed by its entry.
UniProt Q9BXL8: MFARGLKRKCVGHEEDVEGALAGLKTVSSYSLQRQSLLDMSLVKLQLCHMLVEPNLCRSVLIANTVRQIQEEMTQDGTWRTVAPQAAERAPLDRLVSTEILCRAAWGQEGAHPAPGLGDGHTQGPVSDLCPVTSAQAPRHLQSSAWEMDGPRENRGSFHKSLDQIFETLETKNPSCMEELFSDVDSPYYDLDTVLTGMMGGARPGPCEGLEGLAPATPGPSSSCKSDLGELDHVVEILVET
UniProt O75956: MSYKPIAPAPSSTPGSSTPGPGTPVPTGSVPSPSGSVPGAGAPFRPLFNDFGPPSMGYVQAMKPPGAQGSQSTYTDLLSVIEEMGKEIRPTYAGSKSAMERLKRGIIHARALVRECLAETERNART
UniProt Q00537: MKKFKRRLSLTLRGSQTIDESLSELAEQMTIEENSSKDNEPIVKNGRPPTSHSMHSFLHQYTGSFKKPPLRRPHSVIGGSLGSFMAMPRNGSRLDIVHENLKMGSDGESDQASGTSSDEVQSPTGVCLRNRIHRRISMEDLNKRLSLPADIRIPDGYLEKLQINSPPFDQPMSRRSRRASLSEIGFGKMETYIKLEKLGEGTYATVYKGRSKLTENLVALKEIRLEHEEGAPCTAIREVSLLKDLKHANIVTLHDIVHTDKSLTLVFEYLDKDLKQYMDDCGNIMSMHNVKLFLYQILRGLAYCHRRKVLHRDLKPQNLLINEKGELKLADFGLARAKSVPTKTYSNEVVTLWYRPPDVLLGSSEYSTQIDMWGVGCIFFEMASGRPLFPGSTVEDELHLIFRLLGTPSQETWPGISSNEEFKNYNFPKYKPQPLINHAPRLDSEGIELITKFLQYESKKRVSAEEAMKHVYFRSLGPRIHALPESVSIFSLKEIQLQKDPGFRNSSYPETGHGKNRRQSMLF

[1] = compound: CCn1c(C(=O)N(C2CC2)C2CC2)cc2c3c(ncn3C)c(Nc3cc(C)n(C)n3)nc21
Summary of the method: as §1

saracatinib = compound: CN1CCN(CCOc2cc(OC3CCOCC3)c3c(Nc4c(Cl)ccc5c4OCO5)ncnc3c2)CC1 [saracatinib]
Summary of the method: as §1

Tubastatin A = compound: CN1CCc2c(c3ccccc3n2Cc2ccc(C(=O)NO)cc2)C1 [Tubastatin A]
Summary of the method: as §1

defactinib = compound: CNC(=O)c1ccc(Nc2ncc(C(F)(F)F)c(NCc3nccnc3N(C)S(C)(=O)=O)n2)cc1 [defactinib]
Summary of the method: as §1

[2] = compound: CNc1nc(-c2ccc3c(N)n[nH]c3c2)cc(N2C[C@@H](C(=O)NC3CCCCC3)CC[C@H]2C)n1
Summary of the method: as §1

[3] = compound: CCCS(=O)(=O)Nc1ccc(F)c(C(=O)c2c[nH]c3ncc(Cl)cc23)c1F
Summary of the method: as §1

barasertib = compound: CCN(CCCOc1ccc2c(Nc3cc(CC(=O)Nc4cccc(F)c4)[nH]n3)ncnc2c1)CCOP(=O)(O)O [barasertib]
Summary of the method: as §1

volasertib = compound: CC[C@@H]1C(=O)N(C)c2cnc(Nc3ccc(C(=O)N[C@H]4CC[C@H](N5CCN(CC6CC6)CC5)CC4)cc3OC)nc2N1C(C)C [volasertib]
Summary of the method: as §1

[4] = compound: CCn1cc(-c2ccnc3[nH]c(-c4cccc(CN(C)C)c4)cc23)c(-c2ccc(NC(=O)N(C)C)cc2)n1
Summary of the method: as §1

[5] = compound: CN1CCC(CNc2ccc3ncc(-c4cccc(OC(F)(F)F)c4)n3n2)CC1
Summary of the method: as §1

sotrastaurin = compound: CN1CCN(c2nc(C3=C(c4c[nH]c5ccccc45)C(=O)NC3=O)c3ccccc3n2)CC1 [sotrastaurin]
Summary of the method: as §1

alvocidib = compound: CN1CC[C@H](c2c(O)cc(O)c3c(=O)cc(-c4ccccc4Cl)oc23)[C@H](O)C1 [alvocidib]
Summary of the method: as §1

[6] = compound: CNC(=O)C1=CC=CC=C1NC2=NC(=NC=C2Cl)NC3=C(C=C(C=C3)N4CCOCC4)OC
Summary of the method: as §1

alisertib = compound: COc1cc(Nc2ncc3c(n2)-c2ccc(Cl)cc2C(c2c(F)cccc2OC)=NC3)ccc1C(=O)O [alisertib]
Summary of the method: as §1

[7] = compound: COc1cc2nc(-c3cc(F)ccc3O)nc(N[C@@H]3CNC[C@H]3C(C)(C)O)c2cc1OC
Summary of the method: as §1

gefitinib = compound: COc1cc2ncnc(Nc3ccc(F)c(Cl)c3)c2cc1OCCCN1CCOCC1 [gefitinib]
Summary of the method: as §1

[8] = compound: CC[C@@H]1C(=O)N(C)c2cnc(Nc3ccc(C(=O)NC4CCN(C)CC4)cc3OC)nc2N1C1CCCC1
Summary of the method: as §1

encorafenib = compound: COC(=O)N[C@@H](C)CNc1nccc(-c2cn(C(C)C)nc2-c2cc(Cl)cc(NS(C)(=O)=O)c2F)n1 [encorafenib]
Summary of the method: as §1

[9] = compound: COC(=O)[C@H](CCSC)NC(=O)C1=C(C=C(C=C1)NC[C@H](CS)N)C2=CC=CC=C2
Summary of the method: as §1

Measured: log2 fold change

CDCA4 (UniProt Q9BXL8)
inactive: vemurafenib -0.144 | [1] -0.184 | saracatinib -0.171 | Tubastatin A -0.031 | defactinib -0.021 | [2] -0.044

CDK2AP2 (UniProt O75956)
inactive: vemurafenib -0.3 | [3] -0.002 | barasertib 0.082 | volasertib 0.068 | [4] 0.181 | [5] -0.023 | saracatinib 0.003 | sotrastaurin -0.181 | alvocidib -0.031 | [6] 0.02 | defactinib -0.06 | [2] 0.161 | alisertib 0.022 | [7] -0.01 | gefitinib -0.113

CDK17 isoform 2 (UniProt Q00537)
inactive: vemurafenib -0.115 | barasertib 0.011 | [8] -0.078 | [1] -0.007 | [4] 0.091 | [5] -0.299 | saracatinib -0.017 | sotrastaurin 0.03 | Tubastatin A -0.015 | [6] -0.051 | defactinib 0.139 | [2] -0.018 | encorafenib 0.099 | [9] -0.129 | alisertib -0.121 | gefitinib -0.132
active: alvocidib 0.599

— the supplement of paper PMC10849652
